No constants are given. Whether binding was seen depends on the method and setting.
Experiments:
[1] = target: T1, human ferroptosis suppressive protein 1 (human), Q9BRQ8; experiment: crystal structure; hFSP1 with 6-OH-FAD and NADH, 1.75 Å, space group P 65 2 2; one molecule in the asymmetric unit; both purified; conditions: remark: other sources report otherwise
T1 chain: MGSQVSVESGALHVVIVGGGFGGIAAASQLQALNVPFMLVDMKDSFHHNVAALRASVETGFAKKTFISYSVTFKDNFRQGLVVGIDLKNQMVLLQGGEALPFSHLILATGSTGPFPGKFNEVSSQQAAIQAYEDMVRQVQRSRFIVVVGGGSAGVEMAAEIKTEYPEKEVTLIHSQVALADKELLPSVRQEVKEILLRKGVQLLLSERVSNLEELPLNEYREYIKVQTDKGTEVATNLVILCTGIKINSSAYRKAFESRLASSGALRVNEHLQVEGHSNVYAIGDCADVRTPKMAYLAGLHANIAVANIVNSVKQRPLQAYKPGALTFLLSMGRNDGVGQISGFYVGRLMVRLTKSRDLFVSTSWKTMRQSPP

[2] = target: T1, human ferroptosis suppressive protein 1 …; experiment: SEC; Superdex 200 10/300 GL, 25 mM Tris-HCl pH 8.0, 150 mM NaCl, 2 mM DTT; oligomeric state judged from the elution volume; both purified; conditions: remark: other sources report otherwise

binding [1]: no binding
binding [2]: no binding
B1: human ferroptosis suppressive protein 1, Q9BRQ8 1-373 (enzyme)
chain: MGSQVSVESGALHVVIVGGGFGGIAAASQLQALNVPFMLVDMKDSFHHNVAALRASVETGFAKKTFISYSVTFKDNFRQGLVVGIDLKNQMVLLQGGEALPFSHLILATGSTGPFPGKFNEVSSQQAAIQAYEDMVRQVQRSRFIVVVGGGSAGVEMAAEIKTEYPEKEVTLIHSQVALADKELLPSVRQEVKEILLRKGVQLLLSERVSNLEELPLNEYREYIKVQTDKGTEVATNLVILCTGIKINSSAYRKAFESRLASSGALRVNEHLQVEGHSNVYAIGDCADVRTPKMAYLAGLHANIAVANIVNSVKQRPLQAYKPGALTFLLSMGRNDGVGQISGFYVGRLMVRLTKSRDLFVSTSWKTMRQSPP

From PMC10896247
